These are yes or no findings as the source states them, for the method shown. Binding seen in cells or lysates may run through a third protein. Some entries that bind do so weakly or less than the wild type. Sequences can lack the tags named with a protein.

Sequences of proteins named here, by UniProt entry; tags and fusion partners are left off.
UniProt Q96CV9: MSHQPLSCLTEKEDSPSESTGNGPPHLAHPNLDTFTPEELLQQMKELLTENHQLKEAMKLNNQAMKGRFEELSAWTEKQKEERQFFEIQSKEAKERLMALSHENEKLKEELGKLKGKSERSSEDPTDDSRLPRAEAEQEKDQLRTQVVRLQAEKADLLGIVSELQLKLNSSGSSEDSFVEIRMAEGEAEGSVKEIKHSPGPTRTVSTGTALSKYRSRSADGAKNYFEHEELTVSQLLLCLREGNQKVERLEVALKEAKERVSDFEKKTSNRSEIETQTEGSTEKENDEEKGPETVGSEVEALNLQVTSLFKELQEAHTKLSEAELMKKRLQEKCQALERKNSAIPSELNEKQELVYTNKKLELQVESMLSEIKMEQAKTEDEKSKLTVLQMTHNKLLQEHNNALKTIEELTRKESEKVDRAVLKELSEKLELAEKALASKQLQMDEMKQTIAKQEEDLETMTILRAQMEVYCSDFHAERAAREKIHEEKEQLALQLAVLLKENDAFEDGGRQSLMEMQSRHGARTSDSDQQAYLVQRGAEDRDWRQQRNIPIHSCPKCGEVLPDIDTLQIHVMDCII

1 molecule from publication PMC9561704 can be followed below.

This assay addresses N-terminal Flag-tagged OPTN (Optineurin), pCMV2-Flag-OPTN WT (UniProt Q96CV9). Put plainly: co-IP; HUVEC (10^7 cells, cultured on plastic) co-transfected with pCMV2-Flag-OPTN WT or empty vector and pKH3-HA3-Hace1; lysis in RIPA buffer (25 mM Tris-HCl pH 7.6, 150 mM NaCl, 1% NP-40, 1% sodium deoxycholate, 0.1% SDS); anti-FLAG M2 affinity gel 2 h at 4 °C; anti-HA immunoblot.

B1: HA-HACE1 (pKH3-HA3-Hace1) (enzyme, UniProt Q8IYU2 1-909)
chain: MERAMEQLNRLTRSLRRARTVELPEDNETAVYTLMPMVMADQHRSVSELLSNSKFDVNYAFGRVKRSLLHIAANCGSVECLVLLLKKGANPNYQDISGCTPLHLAARNGQKKCMSKLLEYSADVNICNNEGLTAIHWLAVNGRTELLHDLVQHVSDVDVEDAMGQTALHVACQNGHKTTVQCLLDSGADINRPNVSGATPLYFACSHGQRDTAQILLLRGAKYLPDKNGVTPLDLCVQGGYGETCEVLIQYHPRLFQTIIQMTQNEDLRENMLRQVLEHLSQQSESQYLKILTSLAEVATTNGHKLLSLSSNYDAQMKSLLRIVRMFCHVFRIGPSSPSNGIDMGYNGNKTPRSQVFKPLELLWHSLDEWLVLIATELMKNKRDSTEITSILLKQKGQDQDAASIPPFEPPGPGSYENLSTGTRESKPDALAGRQEASADCQDVISMTANRLSAVIQAFYMCCSCQMPPGMTSPRFIEFVCKHDEVLKCFVNRNPKIIFDHFHFLLECPELMSRFMHIIKAQPFKDRCEWFYEHLHSGQPDSDMVHRPVNENDILLVHRDSIFRSSCEVVSKANCAKLKQGIAVRFHGEEGMGQGVVREWFDILSNEIVNPDYALFTQSADGTTFQPNSNSYVNPDHLNYFRFAGQILGLALNHRQLVNIYFTRSFYKHILGIPVNYQDVASIDPEYAKNLQWILDNDISDLGLELTFSVETDVFGAMEEVPLKPGGGSILVTQNNKAEYVQLVTELRMTRAIQPQINAFLQGFHMFIPPSLIQLFDEYELELLLSGMPEIDVSDWIKNTEYTSGYEREDPVIQWFWEVVEDITQEERVLLLQFVTGSSRVPHGGFANIMGGSGLQNFTIAAVPYTPNLLPTSSTCINMLKLPEYPSKEILKDRLLVALHCGSYGYTMA
Take B1: the binding result is on record as “binds”.
